13 sequences from patent US20120039810, “APTAMER-CONTAINING COMPOSITIONS AND METHODS FOR TARGETING E-SELECTIN” (published 2012) can be followed below.

By UniProt entry, the sequences of proteins in these tests, tags left out. Residues count along the entry.
UniProt Q00690, 22-612: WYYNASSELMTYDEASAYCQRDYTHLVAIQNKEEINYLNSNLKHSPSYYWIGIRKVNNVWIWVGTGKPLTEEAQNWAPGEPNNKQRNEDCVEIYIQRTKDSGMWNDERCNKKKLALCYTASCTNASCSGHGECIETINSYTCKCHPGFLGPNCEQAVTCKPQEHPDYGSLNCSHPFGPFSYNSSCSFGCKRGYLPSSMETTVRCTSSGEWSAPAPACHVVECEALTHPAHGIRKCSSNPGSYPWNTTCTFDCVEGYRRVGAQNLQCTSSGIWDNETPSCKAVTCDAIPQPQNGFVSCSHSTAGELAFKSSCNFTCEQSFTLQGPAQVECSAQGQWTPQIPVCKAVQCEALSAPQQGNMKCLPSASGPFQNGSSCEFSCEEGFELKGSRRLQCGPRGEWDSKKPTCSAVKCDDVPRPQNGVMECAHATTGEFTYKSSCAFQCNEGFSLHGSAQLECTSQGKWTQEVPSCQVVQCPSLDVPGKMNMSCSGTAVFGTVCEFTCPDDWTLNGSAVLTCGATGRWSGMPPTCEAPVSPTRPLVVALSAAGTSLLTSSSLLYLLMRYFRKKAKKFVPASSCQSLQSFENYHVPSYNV
UniProt P16581, 22-610: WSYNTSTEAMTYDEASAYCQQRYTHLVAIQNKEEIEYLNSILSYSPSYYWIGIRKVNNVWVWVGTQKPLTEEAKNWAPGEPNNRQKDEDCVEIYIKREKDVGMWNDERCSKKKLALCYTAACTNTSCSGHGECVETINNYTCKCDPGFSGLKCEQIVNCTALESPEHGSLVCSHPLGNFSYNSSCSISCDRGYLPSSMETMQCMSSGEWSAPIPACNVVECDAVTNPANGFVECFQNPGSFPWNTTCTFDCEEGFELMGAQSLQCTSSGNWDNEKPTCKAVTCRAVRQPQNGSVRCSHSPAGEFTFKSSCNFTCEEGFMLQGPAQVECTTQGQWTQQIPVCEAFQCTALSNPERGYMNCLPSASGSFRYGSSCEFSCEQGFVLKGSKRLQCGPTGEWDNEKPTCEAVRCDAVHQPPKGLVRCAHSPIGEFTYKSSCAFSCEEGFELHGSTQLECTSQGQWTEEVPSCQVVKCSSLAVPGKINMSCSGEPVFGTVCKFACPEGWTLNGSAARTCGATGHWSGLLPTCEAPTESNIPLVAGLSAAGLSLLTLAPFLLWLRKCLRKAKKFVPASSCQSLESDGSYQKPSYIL

Results from cells or extracts need not show a direct contact. For some assays here: The exact form of at least one protein or probe is not confirmed. For some assays here: A weaker result is weaker than the reference pair of the same experiment.

One series has as its target E-selectin on 4T1 tumor vasculature endothelium (UniProt Q00690). As to the kind of experiment: binding assay. Particulars: 5'-monothiophosphate (Rp) on all dA except in primer-binding region; in vivo accumulation on 4T1 tumor vasculature after i.v. injection; blocked by anti-E-selectin antibody pretreatment; protein on the cell surface; label: Cy3; single-stranded DNA; variant of ESTA-1 (TA-1).
In the case of “CGCTCGGATCGATAAGCTTCGATCCCACTCTCCCGTTCACTTCTCCTCACGTCACGGATCCTCTAGAGCACTG [ESTA-1 Cy3-labeled]”, the binding result is reported as “binds”.

For another series, the target named is E-selectin on ES-Endo cells (Tet-on HMVEC) (UniProt P16581). Briefly: binding assay. Particulars: 5'-monothiophosphate (Rp) on all dA except in primer-binding region; fluorescence microscopy, 37 C; doxycycline-dependent, detectable at 50 nM, blocked by anti-E-selectin antibody H18/7 but not normal IgG; protein on the cell surface; label: Cy3; single-stranded DNA; variant of ESTA-1 (TA-1).
“CGCTCGGATCGATAAGCTTCGATCCCACTCTCCCGTTCACTTCTCCTCACGTCACGGATCCTCTAGAGCACTG [ESTA-1 Cy3-labeled]”: the binding result is recorded as “binds”.

The same series, now with this note: 5'-monothiophosphate on dA; flanked by primer regions; 100 nM, 37 C; minor or weak doxycycline-dependent binding with high background; protein on the cell surface; label: Cy3; single-stranded DNA.
For “ACCCTACTACACCATCTCACCTCAACCCTC [representative thioaptamer random region SEQ 42]”, the binding result is “binds more weakly”.
With “CCCTCCCCTATACCACTGTCAACTTCCACT [representative thioaptamer random region SEQ 41]”, the binding result is “binds more weakly”.
Same read-out and setting: with “CCTCCACTCCTCCCTTCACTCTACCCACCC [representative thioaptamer random region SEQ 43]” the entry was “binds more weakly”; with “CCTGCACCTCCACCCTACACACTAAACGCG [representative thioaptamer random region SEQ 45]”, “binds more weakly”; with “GCCCCACACCTCCAACACACGCGCCTCCGC [representative thioaptamer random region SEQ 48]”, “binds more weakly”.
With “GCCCTACACTCACCCTCACCCAGACACACC [representative thioaptamer random region SEQ 47]”, the binding result is “binds more weakly”.
In the case of “GCCTTCTCCTGGACTCCACTTCACTCCGTG [representative thioaptamer random region SEQ 44]”, the binding result was “binds more weakly”.
“TCCCCGTCCTTTCTCTTCCCTTCCCCTCGG [representative thioaptamer random region SEQ 39]”: the binding result was “binds more weakly”.
Same read-out and setting: with “TCCTCTCCTCTCGTGTATCCACTCCACACA [representative thioaptamer random region SEQ 46]” the entry was “binds more weakly”.
Same read-out and setting: the result for “TCCTTCCCAGTTCCATCTTATCCTCCTCGG [representative thioaptamer random region SEQ 49]” reads “binds more weakly”; that for “TCTCCCTCCTTCTCCTCTCCTCGCTTCACC [representative thioaptamer random region SEQ 38]”, “binds more weakly”.
For “TTCCCGCACTCCTCCATCCTCCCTTCACAC [representative thioaptamer random region SEQ 40]”, the binding result is listed as “binds more weakly”.
